Experimental data as given in PubChem BioAssay AID493014 (National Center for Advancing Translational Sciences (NCATS), 2011).
“And” between values parts separate entries of the source, which are not always exact repeats. Identical values can stand only once. The list shows a part of the results. The main result of the screen is listed elsewhere. These columns were measured beside it and carry no call. Most of these compounds were active or inconclusive in the main read-out, so they are no random draw. Words in brackets tell the shape of the fitted curve; partial curves, single points and poor fits give uncertain potencies.

Experiment: qHTS Assay to Find Inhibitors of Chronic Active B-Cell Receptor Signaling
Conditions: ABC-DLBCL IkBa-CBG/CBR reporter, luminescence ratio (green luciferase fused to IkBa over red control in TMD8 lymphoma cells), 4 h
Procedure, shortened: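 Concentration-response series (up to 46 uM) were applied to TMD8 dual-reporter cells for 4 h at 37C with doxycycline. Green/red ratio, after filter-overlap correction, defined %Activity; red signal alone was normalised to basal cells and zero luminescence.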

[1] = measured here: CBR red luminescence, cell number
[2] = measured here: IkBa-CBG green luminescence

**Q.** For Cc1ccc(-n2c(SCC(=O)N3CCOCC3)nnc2-c2cccnc2)cc1, which AC50 [1] is on record?
**A.** 2.51 µM [rising, full curve, poor fit]

**Q.** For O=C(CCc1nnc2n(Cc3ccc(F)cc3)c(=O)c3ccccc3n12)NCCCN1CCOCC1, which AC50 [1] is on record?
**A.** 3.55 µM [falling, full curve, poor fit]

**Q.** With Cc1ccc2c(CN3CCOCC3)cc(=O)oc2c1C as the compound, how does the AC50 [1] read?
**A.** 10 µM [rising, partial curve, poor fit]

**Q.** With COc1cccc(N2CCN(c3ncccn3)CC2)c1 as the compound, how does the AC50 [1] read?
**A.** 0.398 µM [rising, full curve, poor fit]

**Q.** With Nc1ccc(C(=O)N/N=C/c2ccccc2)cc1 as the compound, how does the AC50 [1] read?
**A.** 7.94 µM [falling, partial curve]

**Q.** For COc1ccc(NC(=O)c2cccc(S(=O)(=O)N3CCc4ccccc43)c2)cn1, which AC50 [1] is on record?
**A.** 5.01 µM [falling, partial curve, poor fit]

**Q.** Which AC50 [1] does the source give for O=C(N/N=C/c1ccco1)c1cccc(NC(=O)c2cccc(Cl)c2)c1 here?
**A.** 3.98 µM [falling, full curve]

**Q.** Which AC50 [1] does the source give for O=C1CCCN1c1ccc(S(=O)(=O)NCCOc2ccccc2)cc1 here?
**A.** 0.092 µM [falling, partial curve, poor fit]

**Q.** With CC(=O)c1ccc(N2CCN(C(=O)c3ccco3)C(C)C2)c(F)c1 (stereo not given) as the compound, how does the AC50 [1] read?
**A.** 9.2 µM [rising, partial curve, poor fit]

**Q.** Which AC50 [1] does the source give for O=[N+]([O-])c1cccc(-c2nc(-c3cccs3)c(-c3cccs3)[nH]2)c1 here?
**A.** 35.5 µM [falling, single point]

**Q.** For O=C(c1coc2ccc(O)cc12)C1CC1, which AC50 [1] is on record?
**A.** 6.31 µM [rising, partial curve, poor fit]

**Q.** For Cc1cc(C(=O)N(C)C2CCCCC2)no1, which AC50 [1] is on record?
**A.** 0.562 µM [rising, full curve, poor fit]

**Q.** For COc1ccc(CCN(C(=O)c2snc(C(N)=O)c2N)C(C)C(=O)NC2CCCCC2)cc1OC (stereo not given), which AC50 [1] is on record?
**A.** 0.1 µM [rising, full curve, poor fit]

**Q.** For O=C(CSc1nnnn1-c1ccc(F)cc1)Nc1ccc(N2CCOCC2)c(Cl)c1, which AC50 [1] is on record?
**A.** 4.11 µM [rising, single point]

**Q.** With COc1ccccc1NC(=O)Oc1ccc(NC(=O)c2ccco2)cc1 as the compound, how does the AC50 [1] read?
**A.** 6.31 µM [falling, partial curve]

**Q.** For Cc1cc(-c2ccc(NC(=O)[C@@H]3CCCC[C@@H]3C(=O)O)c(C)c2)ccc1NC(=O)[C@@H]1CCCC[C@@H]1C(=O)O, which AC50 [1] is on record?
**A.** 35.5 µM [falling, single point]

**Q.** Which AC50 [1] does the source give for CCn1c(SCC(=O)Nc2ccc(C(C)=O)cc2)nnc1C1CC1 here?
**A.** 0.355 µM [rising, full curve, poor fit]

**Q.** Which AC50 [1] does the source give for CCOc1ccc2nc(N3CCCCCC3)sc2c1 here?
**A.** 17.8 µM [falling, single point]

**Q.** With COc1cccc(NC(=O)CN(C)C(=O)c2ccc3c(c2)CC(c2ccccc2)OC3=O)c1 (stereo not given) as the compound, how does the AC50 [1] read?
**A.** 16.4 µM [falling, partial curve, poor fit]

**Q.** Which AC50 [1] does the source give for Cc1ccccc1C(=O)Nc1nnc(-c2ccco2)o1 here?
**A.** 11.2 µM [falling, partial curve, poor fit]

**Q.** Which AC50 [1] does the source give for O=c1oc(-c2ccc(O)c(O)c2)cc2cc(O)cc(O)c12 here?
**A.** 29.1 µM [falling, single point]

**Q.** With CCN(c1ccccc1)S(=O)(=O)c1cc(C(=O)Nc2ccc(Br)cc2)ccc1F as the compound, how does the AC50 [1] read?
**A.** 9.2 µM [falling, partial curve] and 35.5 µM [falling, single point]

**Q.** For N/C(=N\OC(=O)c1cccc(F)c1)c1ccccn1, which AC50 [1] is on record?
**A.** 8.91 µM [falling, partial curve, poor fit]

**Q.** For O=[N+]([O-])c1cc(/C=N/n2c(-c3ccncc3)n[nH]c2=S)ccc1Cl, which AC50 [1] is on record?
**A.** 15.8 µM [falling, partial curve]

**Q.** What about the AC50 [2] of the same compound?
**A.** 11.2 µM [rising, partial curve, poor fit]

**Q.** Which AC50 [1] does the source give for CN1c2ccccc2-c2nc3ccccc3n2C1c1ccco1 (stereo not given) here?
**A.** 11.2 µM [falling, partial curve, poor fit]

**Q.** With C/C=C(/C)C(=O)Nc1cccc(C2=NOC3(C2)C[C@@H](C(N)=O)N(C(=O)c2ccc(OC)cc2)C3)c1 (stereo not given in full) as the compound, how does the AC50 [1] read?
**A.** 0.891 µM [falling, full curve, poor fit]

**Q.** For O=[N+]([O-])c1cccc(CSc2cccc[n+]2[O-])c1, which AC50 [1] is on record?
**A.** 7.08 µM [rising, partial curve, poor fit]

**Q.** With CCOC(=O)c1c(C)[nH]c(C(=O)N2CCCC(C(=O)c3cccc(OC)c3)C2)c1C (stereo not given) as the compound, how does the AC50 [1] read?
**A.** 10 µM [falling, partial curve]

**Q.** Which AC50 [1] does the source give for Cc1oc(-c2ccccc2)nc1CS(=O)CC(=O)O (stereo not given) here?
**A.** 29.1 µM [rising, single point]

**Q.** What does the source list for CC1(C)O[C@@H]2C[C@H]3[C@@H]4C[C@H](F)C5=CC(=O)CC[C@]5(C)[C@H]4[C@@H](O)C[C@]3(C)[C@]2(C(=O)CO)O1?
**A.** AC50 [1]: 0.146 µM [rising, full curve, poor fit]; AC50 [2]: 0.00461 µM [falling, full curve]

**Q.** With O=C(NC1CCCCC1)N1CCCC(c2nc3ccccc3[nH]2)C1 (stereo not given) as the compound, how does the AC50 [1] read?
**A.** 0.00517 µM [rising, full curve, poor fit]

**Q.** Which AC50 [1] does the source give for CSc1ccc(Cl)c(C(=O)Nc2cc(S(=O)(=O)N3CCOCC3)ccc2N2CCOCC2)c1 here?
**A.** 3.66 µM [rising, full curve]

**Q.** For C[C@@]12C(=O)N(CC3CCCO3)CC(=O)N1[C@H]1c3cc(Cl)ccc3OC[C@@H]1[C@@H]2c1ccccc1 (stereo not given in full), which AC50 [1] is on record?
**A.** 29.1 µM [falling, single point]

**Q.** Which AC50 [1] does the source give for CC(C)(C)C(=O)Cn1ncc(Br)c(Br)c1=O here?
**A.** 8.91 µM [falling, partial curve, poor fit]

**Q.** Which AC50 [1] does the source give for Cc1ccc(C23CC4CC(CC(C(N)=O)(C4)C2)C3)cc1 here?
**A.** 35.5 µM [rising, partial curve, poor fit]

**Q.** Which AC50 [1] does the source give for COC(=O)[C@@H](NC(=O)O[C@H]1C(=O)c2ccc(OC)cc2O[C@@H]1c1ccc2c(c1)OCO2)C(C)C here?
**A.** 18.4 µM [rising, single point]

**Q.** With O=C(NNc1ccccc1[N+](=O)[O-])Nc1ccc(Cl)c(Cl)c1 as the compound, how does the AC50 [1] read?
**A.** 20.6 µM [falling, partial curve]

**Q.** With Cc1ccc(OCc2nnc(N)s2)cc1 as the compound, how does the AC50 [2] read?
**A.** 4.47 µM [rising, partial curve, poor fit]
